The source of these data is doi:10.1101/2023.03.08.531793.

Sequences of proteins named here, by UniProt entry; tags and fusion partners are left off.
UniProt Q8LDC8: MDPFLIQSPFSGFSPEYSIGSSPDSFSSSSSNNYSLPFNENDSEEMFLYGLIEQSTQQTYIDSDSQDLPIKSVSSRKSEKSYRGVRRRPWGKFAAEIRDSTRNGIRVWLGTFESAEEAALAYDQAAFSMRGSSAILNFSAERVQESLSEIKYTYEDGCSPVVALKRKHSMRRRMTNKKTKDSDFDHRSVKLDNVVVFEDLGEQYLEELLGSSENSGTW

The target of this experiment is T1, pBD-ABI3 (Arabidopsis thaliana) (UniProt Q01593).
T1 sequence: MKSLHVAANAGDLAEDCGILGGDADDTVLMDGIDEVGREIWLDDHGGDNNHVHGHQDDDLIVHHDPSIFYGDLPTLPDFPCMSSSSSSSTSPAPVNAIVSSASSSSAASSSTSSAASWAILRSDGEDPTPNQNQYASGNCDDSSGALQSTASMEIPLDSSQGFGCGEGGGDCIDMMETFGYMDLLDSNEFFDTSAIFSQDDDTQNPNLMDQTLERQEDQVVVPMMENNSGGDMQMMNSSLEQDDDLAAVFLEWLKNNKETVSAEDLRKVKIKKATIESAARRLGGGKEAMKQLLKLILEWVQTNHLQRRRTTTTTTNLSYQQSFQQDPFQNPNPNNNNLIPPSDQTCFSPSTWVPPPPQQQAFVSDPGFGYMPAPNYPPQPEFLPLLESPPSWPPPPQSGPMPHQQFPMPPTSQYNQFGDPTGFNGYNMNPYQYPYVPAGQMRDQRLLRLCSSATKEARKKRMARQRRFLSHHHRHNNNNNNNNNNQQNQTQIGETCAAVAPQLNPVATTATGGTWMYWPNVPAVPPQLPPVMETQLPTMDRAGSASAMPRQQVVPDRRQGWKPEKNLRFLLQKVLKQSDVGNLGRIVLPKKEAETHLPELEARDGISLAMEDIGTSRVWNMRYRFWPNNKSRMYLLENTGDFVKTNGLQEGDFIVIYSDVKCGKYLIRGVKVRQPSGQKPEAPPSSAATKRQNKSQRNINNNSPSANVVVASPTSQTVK
In words: two-hybrid.

Results are given in words; binding and its absence hold for the method and conditions named. Some entries that bind do so weakly or less than the wild type.

In the case of pAD-ERF1 (from UniProt Q8LDC8 1-218), the binding result is “binds”.
